According to article PMC10484675:
These are yes or no findings as the source states them, for the method shown. For part of these data: In cells and extracts the contact can be indirect. Some binding calls cover weakened binding; strength is not graded here. For part of these data: Sequences can lack the tags named with a protein. Values belong to the molecule of their own block, whether it stands above or below them.

By UniProt entry, the sequences of proteins in these tests, tags left out.
UniProt Q08297: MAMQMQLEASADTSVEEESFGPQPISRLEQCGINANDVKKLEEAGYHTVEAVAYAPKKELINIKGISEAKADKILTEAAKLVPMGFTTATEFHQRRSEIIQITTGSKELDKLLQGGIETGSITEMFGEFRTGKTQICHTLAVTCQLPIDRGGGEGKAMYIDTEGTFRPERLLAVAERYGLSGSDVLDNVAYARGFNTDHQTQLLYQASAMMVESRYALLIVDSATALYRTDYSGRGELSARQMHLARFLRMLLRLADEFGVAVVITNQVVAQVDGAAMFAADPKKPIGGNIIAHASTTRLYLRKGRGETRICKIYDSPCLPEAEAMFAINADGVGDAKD

Experiments:
[1] = biological target: T1, MBP-FIGNL1 (not stated (human or mouse cDNA cloned)) (UniProt Q8BPY9); assay: pull-down; in vitro GST pull-down: 0.05 μg GST or GST-FLIP on glutathione agarose beads with 0.1 μg MBP, MBP-FIGNL1 or MBP-RAD51 in 800 μl NETN buffer (20 mM Tris HCl pH 8.0, 100 mM NaCl, 1 mM EDTA, 0.5% Nonidet P-40), 4°C, 30 min; immunoblot; both purified
T1 sequence: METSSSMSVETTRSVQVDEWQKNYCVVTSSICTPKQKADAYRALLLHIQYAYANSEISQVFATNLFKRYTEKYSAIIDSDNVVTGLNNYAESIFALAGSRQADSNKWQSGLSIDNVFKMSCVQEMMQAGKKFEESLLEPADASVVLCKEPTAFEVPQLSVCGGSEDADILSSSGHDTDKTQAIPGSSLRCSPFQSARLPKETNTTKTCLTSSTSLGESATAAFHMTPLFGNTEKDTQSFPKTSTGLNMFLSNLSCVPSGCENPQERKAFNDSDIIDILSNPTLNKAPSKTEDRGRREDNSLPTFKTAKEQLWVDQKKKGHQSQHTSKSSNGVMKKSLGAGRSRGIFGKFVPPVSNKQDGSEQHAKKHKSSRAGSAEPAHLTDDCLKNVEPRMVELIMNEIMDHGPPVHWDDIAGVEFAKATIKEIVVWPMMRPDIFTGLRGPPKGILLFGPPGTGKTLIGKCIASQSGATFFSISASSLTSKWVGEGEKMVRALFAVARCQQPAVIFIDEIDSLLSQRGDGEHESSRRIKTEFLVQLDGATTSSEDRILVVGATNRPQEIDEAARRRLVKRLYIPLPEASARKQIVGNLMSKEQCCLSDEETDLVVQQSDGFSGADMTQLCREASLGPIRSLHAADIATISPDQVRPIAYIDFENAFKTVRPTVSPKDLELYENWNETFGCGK

[2] = biological target: RAD51 (mouse), N-terminally tagged (mouse) (UniProt Q08297); assay: co-IP; 293T cells transiently transfected with N-terminally FLAG-, HA- or GFP-tagged mouse proteins, harvested after 24 h; lysis in 25 mM Tris-HCl pH 7.5, 300 mM NaCl, 1% Triton X-100, 1 mM DTT, 1 mM EDTA with sonication; antibody-conjugated agarose beads, 4°C, 4 h; Western blot. RAD51-FLIP co-precipitate strong with overexpressed FIGNL1, basal without exogenous FIGNL1
[3] = biological target: T2, FIGNL1 (endogenous, human HEK293T cells) (human (endogenous in HEK293T)) (UniProt Q6PIW4); assay: co-IP; endogenous proteins; HEK293T whole-cell lysates, mock treated or treated with 10 Gy or 4 mM HU for 3 h, immunoprecipitated with anti-FIGNL1 antibodies or control IgG, immunoblotted with anti-FLIP and anti-FIGNL1
T2 sequence: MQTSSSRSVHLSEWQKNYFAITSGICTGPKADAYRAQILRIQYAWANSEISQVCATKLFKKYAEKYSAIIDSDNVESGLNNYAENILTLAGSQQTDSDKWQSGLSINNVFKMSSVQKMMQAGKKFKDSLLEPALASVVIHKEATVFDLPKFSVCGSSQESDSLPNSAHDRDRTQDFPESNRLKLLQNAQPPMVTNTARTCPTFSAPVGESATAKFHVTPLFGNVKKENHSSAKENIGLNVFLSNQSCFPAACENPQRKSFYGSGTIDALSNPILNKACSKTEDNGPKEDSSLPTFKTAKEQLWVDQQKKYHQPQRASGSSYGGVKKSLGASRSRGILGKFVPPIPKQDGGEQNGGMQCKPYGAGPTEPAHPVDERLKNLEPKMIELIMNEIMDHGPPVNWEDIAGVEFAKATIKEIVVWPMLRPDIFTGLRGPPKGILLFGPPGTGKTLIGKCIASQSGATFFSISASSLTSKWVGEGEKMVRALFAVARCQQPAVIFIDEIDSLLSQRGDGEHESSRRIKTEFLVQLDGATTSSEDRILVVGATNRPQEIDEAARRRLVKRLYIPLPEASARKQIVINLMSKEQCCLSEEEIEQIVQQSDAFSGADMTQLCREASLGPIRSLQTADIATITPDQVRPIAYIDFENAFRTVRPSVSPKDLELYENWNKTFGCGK

binding [1]: binds
Molecule: MBP-RAD51 (from UniProt Q08297 1-339)

binding [2]: binds
B1: FIGNL1 (mouse), N-terminally tagged (protein, UniProt Q8BPY9 1-683)
chain: METSSSMSVETTRSVQVDEWQKNYCVVTSSICTPKQKADAYRALLLHIQYAYANSEISQVFATNLFKRYTEKYSAIIDSDNVVTGLNNYAESIFALAGSRQADSNKWQSGLSIDNVFKMSCVQEMMQAGKKFEESLLEPADASVVLCKEPTAFEVPQLSVCGGSEDADILSSSGHDTDKTQAIPGSSLRCSPFQSARLPKETNTTKTCLTSSTSLGESATAAFHMTPLFGNTEKDTQSFPKTSTGLNMFLSNLSCVPSGCENPQERKAFNDSDIIDILSNPTLNKAPSKTEDRGRREDNSLPTFKTAKEQLWVDQKKKGHQSQHTSKSSNGVMKKSLGAGRSRGIFGKFVPPVSNKQDGSEQHAKKHKSSRAGSAEPAHLTDDCLKNVEPRMVELIMNEIMDHGPPVHWDDIAGVEFAKATIKEIVVWPMMRPDIFTGLRGPPKGILLFGPPGTGKTLIGKCIASQSGATFFSISASSLTSKWVGEGEKMVRALFAVARCQQPAVIFIDEIDSLLSQRGDGEHESSRRIKTEFLVQLDGATTSSEDRILVVGATNRPQEIDEAARRRLVKRLYIPLPEASARKQIVGNLMSKEQCCLSDEETDLVVQQSDGFSGADMTQLCREASLGPIRSLHAADIATISPDQVRPIAYIDFENAFKTVRPTVSPKDLELYENWNETFGCGK

binding [3]: binds
B2: FLIP (endogenous, human HEK293T cells) (protein, UniProt Q9NSG2 1-853)
chain: MFLPHMNHLTLEQTFFSQVLPKTVKLFDDMMYELTSQARGLSSQNLEIQTTLRNILQTMVQLLGALTGCVQHICATQESIILENIQSLPSSVLHIIKSTFVHCKNSESVYSGCLHLVSDLLQALFKEAYSLQKQLMELLDMVCMDPLVDDNDDILNMVIVIHSLLDICSVISSMDHAFHANTWKFIIKQSLKHQSIIKSQLKHKDIITSLCEDILFSFHSCLQLAEQMTQSDAQDNADYRLFQKTLKLCRFFANSLLHYAKEFLPFLSDSCCTLHQLYLQIHSKFPPSLYATRISKAHQEEIAGAFLVTLDPLISQLLTFQPFMQVVLDSKLDLPCELQFPQCLLLVVVMDKLPSQPKEVQTLWCTDSQVSETTTRISLLKAVFYSFEQCSGELSLPVHLQGLKSKGKAEVAVTLYQHVCVHLCTFITSFHPSLFAELDAALLNAVLSANMITSLLAMDAWCFLARYGTAELCAHHVTIVAHLIKSCPGECYQLINLSILLKRLFFFMAPPHQLEFIQKFSPKEAENLPLWQHISFQALPPELREQTVHEVTTVGTAECRKWLSRSRTLGELESLNTVLSALLAVCNSAGEALDTGKQTAIIEVVSQLWAFLNIKQVADQPYVQQTFSLLLPLLGFFIQTLDPKLILQAVTLQTSLLKLELPDYVRLAMLDFVSSLGKLFIPEAIQDRILPNLSCMFALLLADRSWLLEQHTLEAFTQFAEGTNHEEIVPQCLSSEETKNKVVSFLEKTGFVDETEAAKVERVKQEKGIFWEPFANVTVEEAKRSSLQPYAKRARQEFPWEEEYRSALHTIAGALEATESLLQKGPAPAWLSMEMEALQERMDKLKRYIHTLG
